Data as given in PubChem BioAssay AID504774 (Drosophila RNAi Screening Center, 2011)

Aim: 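Knock-downs that shift viability of MMS-exposed cells relative to untreated ones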 (primary screen)
System: Drosophila Kc167 cells
Knock-down reagent: long dsRNA against Drosophila genes, about 0.25 µg dsRNA per well
Timing: about 6 days: 3 days knock-down, then 3 days with or without MMS
Challenge: methyl methanesulphonate 0.004% (w/v) for 3 days after knock-down
Detection: 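ATP-dependent luminescence as a measure of live cells in MMS-exposed wells, quantile normalised within each plate, with replicate values also given as a mean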
Reading the numbers: mean viability with MMS: higher = more surviving cells after MMS
The deposit covers about 23,000 reagents; below is an unselected part of those with a known target gene and a result. 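Values are quantile-normalised luminescence on an arbitrary scale; higher means more cells surviving MMS.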 A plus sign joins genes that one reagent is predicted to hit. Further read-outs or replicates are left out here. No sequences are given here.

With knock-down of CG17637 [DRSC11740], the record shows mean viability with MMS 3.56e6.
tipE [DRSC08738] scored mean viability with MMS 3.57e6.
CG14810 [DRSC17693] scored mean viability with MMS 3.43e6.
Silencing of CG14810 [DRSC17961] gave: mean viability with MMS 3.46e6.
Knock-down of CG3323 [DRSC18303] gave: mean viability with MMS 3.46e6.
Silencing of l(3)mbn [DRSC08793] came out at: mean viability with MMS 3.51e6.
With knock-down of Rrp40 [DRSC00074], the record shows mean viability with MMS 3.47e6.
For CG32262 [DRSC08165] the deposit lists mean viability with MMS 3.67e6.
Silencing of per [DRSC18818] gave: mean viability with MMS 3.51e6.
Spindly [DRSC00430] gave mean viability with MMS 3.25e6.
Knock-down of ND-SGDH [DRSC11102] resulted in: mean viability with MMS 3.50e6.

Single entries from the entries so far:
Spindly [DRSC00430], mean viability with MMS = 3.25e6
Result of CG14810 [DRSC17693] in “mean viability with MMS”: 3.43e6

The listing continues.
CG5116 [DRSC15720] scored mean viability with MMS 1.75e6.
CG6873 [DRSC20014] gave mean viability with MMS 3.40e6.
CG13023 [DRSC09454] showed mean viability with MMS 3.47e6.
With knock-down of CG13023 [DRSC09903], the screen gave mean viability with MMS 3.69e6.
For Lst8 [DRSC18262], the values are mean viability with MMS 3.67e6.
Knock-down of Taf11 [DRSC03448] gave: mean viability with MMS 3.50e6.
Silencing of CG8087 [DRSC16375] gave: mean viability with MMS 3.66e6.
Depletion of Prx6a [DRSC00565] resulted in: mean viability with MMS 3.76e6.
Depletion of Pif1A + Pif1B [DRSC14142] resulted in: mean viability with MMS 3.54e6.
After knock-down of Pif1A + Pif1B [DRSC14380], the record shows mean viability with MMS 3.65e6.
With knock-down of Pif1A + Pif1B [DRSC14381], the screen gave mean viability with MMS 3.62e6.
For ArfGAP3 [DRSC11794], the entry reads mean viability with MMS 3.66e6.
CG1792 [DRSC15290] showed mean viability with MMS 3.61e6.
